In experiment [1] the target is T1, Cap binding protein 80 (Cbp80) (Drosophila) (UniProt Q7K4N3).
T1 sequence: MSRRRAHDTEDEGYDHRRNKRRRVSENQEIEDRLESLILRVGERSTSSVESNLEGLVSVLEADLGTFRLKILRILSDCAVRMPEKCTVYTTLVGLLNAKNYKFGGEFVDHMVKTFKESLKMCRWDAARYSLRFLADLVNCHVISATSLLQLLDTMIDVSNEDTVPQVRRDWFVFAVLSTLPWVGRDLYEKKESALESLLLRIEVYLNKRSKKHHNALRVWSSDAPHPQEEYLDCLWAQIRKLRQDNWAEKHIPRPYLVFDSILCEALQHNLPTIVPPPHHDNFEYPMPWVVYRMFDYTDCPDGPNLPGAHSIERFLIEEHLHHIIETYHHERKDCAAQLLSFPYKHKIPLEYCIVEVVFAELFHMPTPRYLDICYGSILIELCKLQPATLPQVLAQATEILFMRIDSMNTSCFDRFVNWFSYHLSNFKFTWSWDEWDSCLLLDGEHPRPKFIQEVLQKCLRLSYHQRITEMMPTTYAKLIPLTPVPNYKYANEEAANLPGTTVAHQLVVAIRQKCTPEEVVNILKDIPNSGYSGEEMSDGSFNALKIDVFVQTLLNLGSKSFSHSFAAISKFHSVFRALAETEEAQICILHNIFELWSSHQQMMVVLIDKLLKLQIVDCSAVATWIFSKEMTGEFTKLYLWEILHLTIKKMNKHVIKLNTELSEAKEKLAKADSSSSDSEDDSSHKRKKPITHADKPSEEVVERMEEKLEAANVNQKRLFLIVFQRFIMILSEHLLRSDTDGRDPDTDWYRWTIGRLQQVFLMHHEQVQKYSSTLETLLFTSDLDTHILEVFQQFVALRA
In words: two-hybrid; yeast interaction-mating, strains PJ69-4a and PJ69-4alpha; diploids replica-plated on -W -L -A or -W -L -H + 30 mM 3AT; growth scored after 6 days at 30°C; Cbp80 tested in the BD and in the AD vector with Piwi.

Substrate in experiment [2]: T2, P element-induced wimpy testis protein (Piwi) (Drosophila) (UniProt Q9VKM1)
T2 sequence: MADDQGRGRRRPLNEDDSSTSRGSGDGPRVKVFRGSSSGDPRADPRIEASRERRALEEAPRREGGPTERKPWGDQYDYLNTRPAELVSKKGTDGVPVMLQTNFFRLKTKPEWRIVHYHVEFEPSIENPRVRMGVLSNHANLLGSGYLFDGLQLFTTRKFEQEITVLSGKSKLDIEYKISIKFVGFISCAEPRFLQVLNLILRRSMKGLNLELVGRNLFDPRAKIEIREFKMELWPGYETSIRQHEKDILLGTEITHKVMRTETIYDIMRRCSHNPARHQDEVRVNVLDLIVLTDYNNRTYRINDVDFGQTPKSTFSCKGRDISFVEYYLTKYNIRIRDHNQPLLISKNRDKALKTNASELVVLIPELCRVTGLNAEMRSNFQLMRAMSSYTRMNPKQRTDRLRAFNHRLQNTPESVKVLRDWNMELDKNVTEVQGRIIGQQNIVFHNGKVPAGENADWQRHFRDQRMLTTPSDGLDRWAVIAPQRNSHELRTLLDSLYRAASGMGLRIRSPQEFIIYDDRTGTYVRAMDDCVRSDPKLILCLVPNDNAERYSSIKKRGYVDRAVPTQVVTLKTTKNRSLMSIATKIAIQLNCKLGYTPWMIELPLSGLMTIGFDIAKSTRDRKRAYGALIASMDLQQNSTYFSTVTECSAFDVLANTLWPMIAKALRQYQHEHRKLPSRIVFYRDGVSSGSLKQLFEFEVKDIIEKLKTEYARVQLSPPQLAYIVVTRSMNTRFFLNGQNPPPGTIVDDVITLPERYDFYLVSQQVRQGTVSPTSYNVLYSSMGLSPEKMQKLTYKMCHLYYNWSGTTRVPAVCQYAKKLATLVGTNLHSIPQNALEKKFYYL
Described as above.

No constants are given. Whether binding was seen depends on the method and setting.

B1: P element-induced wimpy testis protein (Piwi) (protein, UniProt Q9VKM1 1-843)
chain: MADDQGRGRRRPLNEDDSSTSRGSGDGPRVKVFRGSSSGDPRADPRIEASRERRALEEAPRREGGPTERKPWGDQYDYLNTRPAELVSKKGTDGVPVMLQTNFFRLKTKPEWRIVHYHVEFEPSIENPRVRMGVLSNHANLLGSGYLFDGLQLFTTRKFEQEITVLSGKSKLDIEYKISIKFVGFISCAEPRFLQVLNLILRRSMKGLNLELVGRNLFDPRAKIEIREFKMELWPGYETSIRQHEKDILLGTEITHKVMRTETIYDIMRRCSHNPARHQDEVRVNVLDLIVLTDYNNRTYRINDVDFGQTPKSTFSCKGRDISFVEYYLTKYNIRIRDHNQPLLISKNRDKALKTNASELVVLIPELCRVTGLNAEMRSNFQLMRAMSSYTRMNPKQRTDRLRAFNHRLQNTPESVKVLRDWNMELDKNVTEVQGRIIGQQNIVFHNGKVPAGENADWQRHFRDQRMLTTPSDGLDRWAVIAPQRNSHELRTLLDSLYRAASGMGLRIRSPQEFIIYDDRTGTYVRAMDDCVRSDPKLILCLVPNDNAERYSSIKKRGYVDRAVPTQVVTLKTTKNRSLMSIATKIAIQLNCKLGYTPWMIELPLSGLMTIGFDIAKSTRDRKRAYGALIASMDLQQNSTYFSTVTECSAFDVLANTLWPMIAKALRQYQHEHRKLPSRIVFYRDGVSSGSLKQLFEFEVKDIIEKLKTEYARVQLSPPQLAYIVVTRSMNTRFFLNGQNPPPGTIVDDVITLPERYDFYLVSQQVRQGTVSPTSYNVLYSSMGLSPEKMQKLTYKMCHLYYNWSGTTRVPAVCQYAKKLATLVGTNLHSIPQNALEKKFYYL
For the molecule B1, the binding result in experiment [1] is recorded as “no binding”.

B2: Cap binding protein 80 (Cbp80) (protein, UniProt Q7K4N3 1-800)
chain: MSRRRAHDTEDEGYDHRRNKRRRVSENQEIEDRLESLILRVGERSTSSVESNLEGLVSVLEADLGTFRLKILRILSDCAVRMPEKCTVYTTLVGLLNAKNYKFGGEFVDHMVKTFKESLKMCRWDAARYSLRFLADLVNCHVISATSLLQLLDTMIDVSNEDTVPQVRRDWFVFAVLSTLPWVGRDLYEKKESALESLLLRIEVYLNKRSKKHHNALRVWSSDAPHPQEEYLDCLWAQIRKLRQDNWAEKHIPRPYLVFDSILCEALQHNLPTIVPPPHHDNFEYPMPWVVYRMFDYTDCPDGPNLPGAHSIERFLIEEHLHHIIETYHHERKDCAAQLLSFPYKHKIPLEYCIVEVVFAELFHMPTPRYLDICYGSILIELCKLQPATLPQVLAQATEILFMRIDSMNTSCFDRFVNWFSYHLSNFKFTWSWDEWDSCLLLDGEHPRPKFIQEVLQKCLRLSYHQRITEMMPTTYAKLIPLTPVPNYKYANEEAANLPGTTVAHQLVVAIRQKCTPEEVVNILKDIPNSGYSGEEMSDGSFNALKIDVFVQTLLNLGSKSFSHSFAAISKFHSVFRALAETEEAQICILHNIFELWSSHQQMMVVLIDKLLKLQIVDCSAVATWIFSKEMTGEFTKLYLWEILHLTIKKMNKHVIKLNTELSEAKEKLAKADSSSSDSEDDSSHKRKKPITHADKPSEEVVERMEEKLEAANVNQKRLFLIVFQRFIMILSEHLLRSDTDGRDPDTDWYRWTIGRLQQVFLMHHEQVQKYSSTLETLLFTSDLDTHILEVFQQFVALRA
Regarding B2, in experiment [2], the binding result is reported as “no binding”.

(Values after article PMC5528831.)
